Data from publication PMC11467421.
No constants are given. Whether binding was seen depends on the method and setting. Binding seen in cells or lysates may run through a third protein. Some results given as binding are weak or reduced against the parent protein; the word gives no strength.

Biological target: T1, TRIM33 in the co-IP in HEK293 cells (UniProt Q9UPN9)
T1 sequence: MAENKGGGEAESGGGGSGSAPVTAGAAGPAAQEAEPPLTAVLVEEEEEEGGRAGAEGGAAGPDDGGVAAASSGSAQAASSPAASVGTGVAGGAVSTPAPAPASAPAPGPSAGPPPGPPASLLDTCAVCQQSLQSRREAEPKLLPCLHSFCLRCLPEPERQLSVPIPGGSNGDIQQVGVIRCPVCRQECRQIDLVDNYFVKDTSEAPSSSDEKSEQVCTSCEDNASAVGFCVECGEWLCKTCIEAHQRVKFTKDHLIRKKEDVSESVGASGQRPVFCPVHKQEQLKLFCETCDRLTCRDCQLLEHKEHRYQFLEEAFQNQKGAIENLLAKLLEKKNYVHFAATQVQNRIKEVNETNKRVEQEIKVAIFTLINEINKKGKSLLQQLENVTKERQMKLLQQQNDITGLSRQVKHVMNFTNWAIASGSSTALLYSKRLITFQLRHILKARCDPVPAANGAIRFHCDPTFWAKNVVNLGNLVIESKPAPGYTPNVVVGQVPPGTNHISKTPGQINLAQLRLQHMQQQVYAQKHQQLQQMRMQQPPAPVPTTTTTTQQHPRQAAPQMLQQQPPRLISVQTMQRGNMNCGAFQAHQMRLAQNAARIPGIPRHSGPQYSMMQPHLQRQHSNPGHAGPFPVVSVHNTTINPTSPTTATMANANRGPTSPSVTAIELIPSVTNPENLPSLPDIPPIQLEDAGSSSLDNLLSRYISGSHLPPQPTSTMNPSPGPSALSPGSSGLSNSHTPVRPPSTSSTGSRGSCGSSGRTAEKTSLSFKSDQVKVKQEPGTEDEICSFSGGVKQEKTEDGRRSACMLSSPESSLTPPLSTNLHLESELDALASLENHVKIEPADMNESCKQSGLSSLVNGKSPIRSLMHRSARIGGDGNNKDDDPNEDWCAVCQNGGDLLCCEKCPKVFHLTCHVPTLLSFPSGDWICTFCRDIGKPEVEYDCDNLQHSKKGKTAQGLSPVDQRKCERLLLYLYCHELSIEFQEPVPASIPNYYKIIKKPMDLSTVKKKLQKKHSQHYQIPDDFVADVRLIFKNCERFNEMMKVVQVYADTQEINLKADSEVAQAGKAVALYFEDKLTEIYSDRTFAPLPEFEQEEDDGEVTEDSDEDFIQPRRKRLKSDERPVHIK
Assay: co-IP; HEK293 cell lysates incubated with the corresponding antibodies and Protein A/G beads at 4 °C overnight; beads washed with PBST; western blot

- binding: binds
Substance: P53 in the co-IP in HEK293 cells (from UniProt P04637 1-393)
